This passage reports binding results from publication PMC12018991.

Sequences of proteins named here, by UniProt entry; tags and fusion partners are left off.
UniProt Q04206: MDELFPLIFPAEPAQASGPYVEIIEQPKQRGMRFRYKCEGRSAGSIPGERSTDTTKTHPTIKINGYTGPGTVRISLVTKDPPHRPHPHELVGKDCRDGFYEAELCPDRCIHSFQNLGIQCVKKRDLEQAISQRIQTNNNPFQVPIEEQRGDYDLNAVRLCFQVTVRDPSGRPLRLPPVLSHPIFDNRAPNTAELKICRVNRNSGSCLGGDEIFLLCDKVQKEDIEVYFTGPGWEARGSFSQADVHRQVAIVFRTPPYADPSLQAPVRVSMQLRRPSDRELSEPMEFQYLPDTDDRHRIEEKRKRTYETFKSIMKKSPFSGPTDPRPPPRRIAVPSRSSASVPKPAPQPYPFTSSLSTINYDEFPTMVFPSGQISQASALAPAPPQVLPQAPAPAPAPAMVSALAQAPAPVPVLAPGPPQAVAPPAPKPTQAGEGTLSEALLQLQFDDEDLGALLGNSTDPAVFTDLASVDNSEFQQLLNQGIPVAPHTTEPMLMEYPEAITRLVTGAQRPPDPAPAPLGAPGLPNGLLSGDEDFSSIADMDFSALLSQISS
UniProt P46937: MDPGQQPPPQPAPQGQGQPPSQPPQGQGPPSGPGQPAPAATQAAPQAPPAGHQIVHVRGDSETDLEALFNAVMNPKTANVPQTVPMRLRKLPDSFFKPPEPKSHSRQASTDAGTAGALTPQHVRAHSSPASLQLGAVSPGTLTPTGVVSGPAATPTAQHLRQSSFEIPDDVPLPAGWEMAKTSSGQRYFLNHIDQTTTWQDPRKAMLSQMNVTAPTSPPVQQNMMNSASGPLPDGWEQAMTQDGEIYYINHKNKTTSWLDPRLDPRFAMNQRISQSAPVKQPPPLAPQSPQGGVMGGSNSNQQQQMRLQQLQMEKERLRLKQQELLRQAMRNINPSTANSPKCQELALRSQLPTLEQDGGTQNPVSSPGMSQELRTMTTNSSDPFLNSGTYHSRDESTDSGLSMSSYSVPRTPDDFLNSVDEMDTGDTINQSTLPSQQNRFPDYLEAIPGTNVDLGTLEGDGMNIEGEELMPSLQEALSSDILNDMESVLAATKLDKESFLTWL

Assay [1] concerns the target NF-κB subunit p65 (endogenous, 786-O cells) (human (endogenous in 786-O)) (UniProt Q04206). Description: co-IP; endogenous proteins; 786-O cell lysates incubated with anti-p65 antibody or control IgG overnight at 4 °C, Protein A resin, Western blot; cells grown without or with 2 μM XMU-MP-1 for 6 h. A general note: Immunoblotting shows a protein as a band on a membrane.

Assay [2] deals with Myc-tagged p65 (UniProt Q04206). Description: co-IP; HEK293A cells transfected with Myc-p65, HA-ZHX2, Fg-YAP-5SA and/or TEAD4-GFP (fixed amounts of some, increasing amounts of one); lysates precipitated with anti-Myc antibody overnight, Protein A resin, Western blot for the tags, endogenous TEAD4 or endogenous YAP.

Results are given in words; binding and its absence hold for the method and conditions named. In cells and extracts the contact can be indirect. Some results given as binding are weak or reduced against the parent protein; the word gives no strength.

For “Yes1-associated transcriptional regulator (endogenous, 786-O cells) (from UniProt P46937 1-504)”, the binding entry in assay [1] is “binds”.

In the case of “YAP (endogenous, HEK293 cells) (from UniProt P46937 1-504)”, in assay [2], the binding result is given as “binds”.
